According to publication doi:10.1101/2025.10.21.683757:
No constants are given. Whether binding was seen depends on the method and setting. In cells and extracts the contact can be indirect. A yes stands for co-enrichment or nearness to the bait. Other partners may have been found.

Amino acid sequences for entries named in this document (tags omitted).
UniProt Q96N16: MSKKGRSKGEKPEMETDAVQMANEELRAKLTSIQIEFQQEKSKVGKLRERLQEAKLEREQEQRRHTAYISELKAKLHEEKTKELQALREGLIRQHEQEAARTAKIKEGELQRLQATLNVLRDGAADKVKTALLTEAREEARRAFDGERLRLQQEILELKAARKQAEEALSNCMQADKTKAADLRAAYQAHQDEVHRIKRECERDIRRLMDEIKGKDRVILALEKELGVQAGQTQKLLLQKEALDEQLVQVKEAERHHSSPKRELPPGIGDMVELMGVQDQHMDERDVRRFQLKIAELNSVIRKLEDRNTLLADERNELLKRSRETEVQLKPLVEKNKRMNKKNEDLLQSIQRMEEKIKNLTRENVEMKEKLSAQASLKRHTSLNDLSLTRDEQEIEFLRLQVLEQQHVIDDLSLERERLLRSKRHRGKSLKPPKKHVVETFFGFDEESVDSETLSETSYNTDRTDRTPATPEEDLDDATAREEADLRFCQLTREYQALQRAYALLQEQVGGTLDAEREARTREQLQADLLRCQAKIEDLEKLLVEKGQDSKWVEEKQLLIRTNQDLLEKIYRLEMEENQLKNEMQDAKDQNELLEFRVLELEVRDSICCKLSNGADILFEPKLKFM
UniProt Q7L576: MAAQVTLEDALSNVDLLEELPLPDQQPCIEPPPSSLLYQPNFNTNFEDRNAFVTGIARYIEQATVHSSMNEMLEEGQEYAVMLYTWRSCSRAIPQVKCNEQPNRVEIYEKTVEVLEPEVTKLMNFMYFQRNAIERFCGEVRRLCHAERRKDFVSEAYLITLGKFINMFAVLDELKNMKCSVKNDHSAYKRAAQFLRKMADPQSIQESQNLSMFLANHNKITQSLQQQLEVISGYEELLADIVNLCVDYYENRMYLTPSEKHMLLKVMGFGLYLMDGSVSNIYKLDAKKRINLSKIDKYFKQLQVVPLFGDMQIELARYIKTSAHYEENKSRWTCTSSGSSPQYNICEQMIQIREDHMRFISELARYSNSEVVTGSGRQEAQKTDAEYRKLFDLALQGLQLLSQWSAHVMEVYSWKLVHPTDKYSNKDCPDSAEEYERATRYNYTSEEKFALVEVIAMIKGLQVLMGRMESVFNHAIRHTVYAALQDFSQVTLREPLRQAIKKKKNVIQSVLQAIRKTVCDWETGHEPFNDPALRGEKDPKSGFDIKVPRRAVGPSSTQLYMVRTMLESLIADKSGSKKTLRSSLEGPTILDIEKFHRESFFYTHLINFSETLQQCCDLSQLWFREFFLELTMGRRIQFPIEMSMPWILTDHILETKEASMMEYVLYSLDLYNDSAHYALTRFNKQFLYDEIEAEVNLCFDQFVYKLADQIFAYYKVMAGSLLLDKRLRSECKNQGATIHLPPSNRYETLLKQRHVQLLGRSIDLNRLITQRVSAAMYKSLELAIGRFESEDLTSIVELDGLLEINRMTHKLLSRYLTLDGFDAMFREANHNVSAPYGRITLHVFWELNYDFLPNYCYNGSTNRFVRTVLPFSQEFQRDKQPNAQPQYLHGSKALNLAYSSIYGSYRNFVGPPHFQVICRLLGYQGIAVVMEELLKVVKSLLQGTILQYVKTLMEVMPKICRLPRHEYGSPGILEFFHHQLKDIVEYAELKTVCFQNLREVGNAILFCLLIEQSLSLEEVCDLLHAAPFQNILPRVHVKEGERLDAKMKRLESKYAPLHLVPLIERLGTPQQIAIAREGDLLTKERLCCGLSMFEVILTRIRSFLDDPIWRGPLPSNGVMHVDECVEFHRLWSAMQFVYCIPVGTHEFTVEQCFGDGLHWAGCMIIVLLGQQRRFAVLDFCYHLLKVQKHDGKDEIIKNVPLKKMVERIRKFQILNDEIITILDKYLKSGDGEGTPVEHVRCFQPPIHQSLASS

Molecular target: full-length JAKMIP1-mCherry fusion protein (expressed in SH-SY5Y cells) (UniProt Q96N16)
Experiment: affinity purification with mass spectrometry

binding: binds
Substance: Cytoplasmic FMRP-Interacting Protein 1 (from UniProt Q7L576 1-1253)
